Results published in PMC6430458.

Sequences of proteins named here, by UniProt entry; tags and fusion partners are left off. Residues count along the entry.
UniProt Q13308, 31-1070: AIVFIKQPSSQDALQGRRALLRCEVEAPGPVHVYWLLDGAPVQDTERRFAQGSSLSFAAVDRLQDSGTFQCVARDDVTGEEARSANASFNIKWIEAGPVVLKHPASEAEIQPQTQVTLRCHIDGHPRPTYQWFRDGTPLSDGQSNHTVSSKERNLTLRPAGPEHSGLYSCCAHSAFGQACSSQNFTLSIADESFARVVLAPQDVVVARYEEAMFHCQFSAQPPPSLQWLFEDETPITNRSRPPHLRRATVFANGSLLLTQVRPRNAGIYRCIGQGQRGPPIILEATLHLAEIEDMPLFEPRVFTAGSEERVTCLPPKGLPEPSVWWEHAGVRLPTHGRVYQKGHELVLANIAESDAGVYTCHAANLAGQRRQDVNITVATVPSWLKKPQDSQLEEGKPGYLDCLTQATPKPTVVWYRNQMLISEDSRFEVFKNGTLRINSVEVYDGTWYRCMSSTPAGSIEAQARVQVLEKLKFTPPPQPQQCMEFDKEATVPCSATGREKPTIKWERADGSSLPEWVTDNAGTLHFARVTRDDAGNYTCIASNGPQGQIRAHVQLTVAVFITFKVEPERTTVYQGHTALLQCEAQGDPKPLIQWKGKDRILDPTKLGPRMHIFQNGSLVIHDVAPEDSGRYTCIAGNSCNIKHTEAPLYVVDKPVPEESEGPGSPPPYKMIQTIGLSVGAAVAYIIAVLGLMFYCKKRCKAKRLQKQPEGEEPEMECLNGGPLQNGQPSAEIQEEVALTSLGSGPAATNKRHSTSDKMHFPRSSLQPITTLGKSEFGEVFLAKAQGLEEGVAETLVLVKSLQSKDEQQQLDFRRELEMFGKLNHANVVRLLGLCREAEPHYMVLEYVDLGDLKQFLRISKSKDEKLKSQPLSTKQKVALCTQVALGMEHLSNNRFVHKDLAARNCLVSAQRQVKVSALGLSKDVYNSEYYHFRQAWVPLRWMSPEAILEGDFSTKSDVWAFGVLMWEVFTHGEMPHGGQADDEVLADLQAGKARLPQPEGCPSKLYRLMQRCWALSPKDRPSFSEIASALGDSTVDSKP

Molecular target: protein tyrosine kinase 7 (PTK7) on CCRF-CEM cells (human) (UniProt Q13308)
Assay: flow cytometry and confocal microscopy (cell uptake)
Conditions: 100 nM, 12 h, indirect, uptake read-out, Live cells in medium, first 1 h without FBS, 100 nM Cy5 nanostructure, PBS washes, temperature not stated, TDN annealed in 10 mM Tris-HCl pH 8.0, 50 mM MgCl2, protein on the cell surface, folded or branched DNA

Row | Sequence | binding result (up to 4x uptake of PTK7-negative Ramos cells) | binding result (uptake low, as in Ramos cells)
1 | ATTTATCACCCGCCATAGTAGACGTATCACCAGGCAGTTGAGACGAACATTCCTAAGTCTGAA / ATCTAACTGCTGCGCCGCCGGGAAAATACTGTACGGTTAGATTTTTACATGCGAGGGTCCAATACCGACGATTACAGCTTGCTACACGATTCAGACTTAGGAATGTTCG / ACTACTATGGCGGGTGATAAAACGTGTAGCAAGCTGTAATCGACGGGAAGAGCATGCCCATCC / ACGGTATTGGACCCTCGCATGACTCAACTGCCTGGTGATACGAGGATGGGCATGCTCTTCCCG [s-TDN (sgc8c aptamer-modified DNA tetrahedron; S1+S5+S3+S4)] | binds | 
2 | ATTTATCACCCGCCATAGTAGACGTATCACCAGGCAGTTGAGACGAACATTCCTAAGTCTGAA / ACATGCGAGGGTCCAATACCGACGATTACAGCTTGCTACACGATTCAGACTTAGGAATGTTCG / ACTACTATGGCGGGTGATAAAACGTGTAGCAAGCTGTAATCGACGGGAAGAGCATGCCCATCC / ACGGTATTGGACCCTCGCATGACTCAACTGCCTGGTGATACGAGGATGGGCATGCTCTTCCCG [TDN (DNA tetrahedron without aptamer; S1+S2+S3+S4)] |  | binds more weakly

For at least one entry, the source does not settle the construct or the ends of the probe. At least one result comes from cells or an extract, where the contact may be indirect. The comparison behind a weaker result is the experiment's own reference, which may not be listed here. At least one verdict rests on a figure or table, not on a statement of the authors.
